Measured data: PubChem BioAssay AID652259 (Drosophila RNAi Screening Center, 2013)

Purpose: 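Knock-downs that push a Wingless-driven reporter up or down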 (primary screen)
System: Drosophila clone 8 imaginal disc epithelial cells
Knock-down reagent: long dsRNA against Drosophila genes
Conditions: pathway stimulated by co-transfected Wingless expression plasmid
Read-out: 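Firefly luciferase from a tcf-site Wingless reporter, measured alongside co-transfected Renilla luciferase that tracks transfection; pathway stimulated by a Wingless plasmid; the firefly-to-Renilla ratio is not deposited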
Reading the numbers: firefly reporter light: higher = more Wg reporter light, before normalisation; Renilla control light: higher = more transfected or surviving cells
Call rule: 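Strong candidates differ from their plate mean by at least two out of four per-plate statistical tests; weak candidates meet just one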
Calls: active = candidate regulator (raises or lowers reporter); inactive = not a candidate
The screen tested about 22,000 reagents; below is an unselected part of those with a known target gene and a result. Over the whole deposit, 233 (1.1%) are marked active. 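Light values are raw, unnormalised plate reads; the ratio scores behind the reporter calls were not deposited.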 Unmarked entries are inactive. The numbers tell different reagents against one gene apart. Not stated in the record: the amount of reagent, the time to read-out, the dose of the treatment.

{"gene knocked down": "Lkb1", "dsRNA no.": 1, "firefly reporter light, replicate 1": 7344, "Renilla control light, replicate 1": 2162}
{"gene knocked down": "HP1b", "dsRNA no.": 1, "firefly reporter light, replicate 1": 21112, "Renilla control light, replicate 1": 14168}
{"gene knocked down": "blw", "dsRNA no.": 1, "firefly reporter light, replicate 1": 2833, "firefly reporter light, replicate 2": 7734, "Renilla control light, replicate 1": 531, "Renilla control light, replicate 2": 2000}
{"gene knocked down": "Rgk3", "dsRNA no.": 1, "firefly reporter light, replicate 1": 3426, "firefly reporter light, replicate 2": 11909, "Renilla control light, replicate 1": 824, "Renilla control light, replicate 2": 4977}
{"gene knocked down": "Rgk3", "dsRNA no.": 2, "firefly reporter light, replicate 1": 3466, "firefly reporter light, replicate 2": 9824, "Renilla control light, replicate 1": 1270, "Renilla control light, replicate 2": 4235}
{"gene knocked down": "Rgk3", "dsRNA no.": 3, "firefly reporter light, replicate 1": 2824, "firefly reporter light, replicate 2": 5819, "Renilla control light, replicate 1": 791, "Renilla control light, replicate 2": 1876}
{"gene knocked down": "Rgk3", "dsRNA no.": 4, "firefly reporter light, replicate 1": 2924, "firefly reporter light, replicate 2": 9259, "Renilla control light, replicate 1": 699, "Renilla control light, replicate 2": 2960}
{"gene knocked down": "CG43059", "dsRNA no.": 1, "firefly reporter light, replicate 1": 3792, "Renilla control light, replicate 1": 2192}
{"gene knocked down": "Act5C", "dsRNA no.": 1, "firefly reporter light, replicate 1": 21821, "Renilla control light, replicate 1": 10581}
{"gene knocked down": "Rab26", "dsRNA no.": 1, "firefly reporter light, replicate 1": 1505, "Renilla control light, replicate 1": 299}
{"gene knocked down": "Rab26", "dsRNA no.": 2, "firefly reporter light, replicate 1": 15888, "Renilla control light, replicate 1": 4403}
{"gene knocked down": "Rab26", "dsRNA no.": 3, "firefly reporter light, replicate 1": 16054, "Renilla control light, replicate 1": 5164}
{"gene knocked down": "CG5902", "dsRNA no.": 1, "firefly reporter light, replicate 1": 4032, "firefly reporter light, replicate 2": 4586, "Renilla control light, replicate 1": 601, "Renilla control light, replicate 2": 1717}
{"gene knocked down": "CG30325", "dsRNA no.": 1, "firefly reporter light, replicate 1": 22219, "Renilla control light, replicate 1": 16757}
{"gene knocked down": "CG34345", "dsRNA no.": 1, "firefly reporter light, replicate 1": 2535, "firefly reporter light, replicate 2": 3440, "Renilla control light, replicate 1": 672, "Renilla control light, replicate 2": 1245}
{"gene knocked down": "CG4942", "dsRNA no.": 1, "firefly reporter light, replicate 1": 7495, "Renilla control light, replicate 1": 2907}
{"gene knocked down": "CG32054", "dsRNA no.": 1, "firefly reporter light, replicate 1": 5452, "Renilla control light, replicate 1": 3393}
{"gene knocked down": "Sap-r", "dsRNA no.": 1, "firefly reporter light, replicate 1": 4611, "firefly reporter light, replicate 2": 13228, "Renilla control light, replicate 1": 1803, "Renilla control light, replicate 2": 4377}
{"gene knocked down": "Sap-r", "dsRNA no.": 2, "firefly reporter light, replicate 1": 5.60e5, "firefly reporter light, replicate 2": 5.62e5, "Renilla control light, replicate 1": 1.43e5, "Renilla control light, replicate 2": 1.44e5}
{"gene knocked down": "CG6664", "dsRNA no.": 1, "firefly reporter light, replicate 1": 3490, "Renilla control light, replicate 1": 1840}
{"gene knocked down": "CG13893", "dsRNA no.": 1, "firefly reporter light, replicate 1": 4832, "Renilla control light, replicate 1": 2451}
{"gene knocked down": "CG1958", "dsRNA no.": 1, "firefly reporter light, replicate 1": 18012, "Renilla control light, replicate 1": 8009}
{"gene knocked down": "Sec5", "dsRNA no.": 1, "firefly reporter light, replicate 1": 7241, "Renilla control light, replicate 1": 4136}
{"gene knocked down": "CR10102", "dsRNA no.": 1, "firefly reporter light, replicate 1": 4934, "Renilla control light, replicate 1": 2226}
{"gene knocked down": "RpL13", "dsRNA no.": 1, "firefly reporter light, replicate 1": 3323, "Renilla control light, replicate 1": 1008}
{"gene knocked down": "Uba2", "dsRNA no.": 1, "reporter change call, replicate 1": "Wg reporter activity raised (active)", "firefly reporter light, replicate 1": 7920, "firefly reporter light, replicate 2": 25259, "Renilla control light, replicate 1": 1524, "Renilla control light, replicate 2": 4600}
{"gene knocked down": "CG13159", "dsRNA no.": 1, "firefly reporter light, replicate 1": 9194, "firefly reporter light, replicate 2": 7.85e5, "Renilla control light, replicate 1": 3856, "Renilla control light, replicate 2": 3.98e5}
{"gene knocked down": "peng", "dsRNA no.": 1, "firefly reporter light, replicate 1": 23990, "Renilla control light, replicate 1": 10827}
{"gene knocked down": "CG11977", "dsRNA no.": 1, "firefly reporter light, replicate 1": 9700, "Renilla control light, replicate 1": 2794}
{"gene knocked down": "CG5089", "dsRNA no.": 1, "firefly reporter light, replicate 1": 12608, "Renilla control light, replicate 1": 3944}
{"gene knocked down": "Osbp", "dsRNA no.": 1, "firefly reporter light, replicate 1": 2256, "firefly reporter light, replicate 2": 6093, "Renilla control light, replicate 1": 1261, "Renilla control light, replicate 2": 1728}
{"gene knocked down": "Cyp301a1", "dsRNA no.": 1, "firefly reporter light, replicate 1": 6937, "Renilla control light, replicate 1": 2812}

Entries listed so far called active:
{"gene knocked down": "Uba2", "dsRNA no.": 1, "reporter change call, replicate 1": "Wg reporter activity raised (active)", "firefly reporter light, replicate 1": 7920, "firefly reporter light, replicate 2": 25259, "Renilla control light, replicate 1": 1524, "Renilla control light, replicate 2": 4600}
